These results are taken from PMC9440122.

Protein sequences, listed by entry. Tags and fused reporters are not part of them.
UniProt Q8NFU7: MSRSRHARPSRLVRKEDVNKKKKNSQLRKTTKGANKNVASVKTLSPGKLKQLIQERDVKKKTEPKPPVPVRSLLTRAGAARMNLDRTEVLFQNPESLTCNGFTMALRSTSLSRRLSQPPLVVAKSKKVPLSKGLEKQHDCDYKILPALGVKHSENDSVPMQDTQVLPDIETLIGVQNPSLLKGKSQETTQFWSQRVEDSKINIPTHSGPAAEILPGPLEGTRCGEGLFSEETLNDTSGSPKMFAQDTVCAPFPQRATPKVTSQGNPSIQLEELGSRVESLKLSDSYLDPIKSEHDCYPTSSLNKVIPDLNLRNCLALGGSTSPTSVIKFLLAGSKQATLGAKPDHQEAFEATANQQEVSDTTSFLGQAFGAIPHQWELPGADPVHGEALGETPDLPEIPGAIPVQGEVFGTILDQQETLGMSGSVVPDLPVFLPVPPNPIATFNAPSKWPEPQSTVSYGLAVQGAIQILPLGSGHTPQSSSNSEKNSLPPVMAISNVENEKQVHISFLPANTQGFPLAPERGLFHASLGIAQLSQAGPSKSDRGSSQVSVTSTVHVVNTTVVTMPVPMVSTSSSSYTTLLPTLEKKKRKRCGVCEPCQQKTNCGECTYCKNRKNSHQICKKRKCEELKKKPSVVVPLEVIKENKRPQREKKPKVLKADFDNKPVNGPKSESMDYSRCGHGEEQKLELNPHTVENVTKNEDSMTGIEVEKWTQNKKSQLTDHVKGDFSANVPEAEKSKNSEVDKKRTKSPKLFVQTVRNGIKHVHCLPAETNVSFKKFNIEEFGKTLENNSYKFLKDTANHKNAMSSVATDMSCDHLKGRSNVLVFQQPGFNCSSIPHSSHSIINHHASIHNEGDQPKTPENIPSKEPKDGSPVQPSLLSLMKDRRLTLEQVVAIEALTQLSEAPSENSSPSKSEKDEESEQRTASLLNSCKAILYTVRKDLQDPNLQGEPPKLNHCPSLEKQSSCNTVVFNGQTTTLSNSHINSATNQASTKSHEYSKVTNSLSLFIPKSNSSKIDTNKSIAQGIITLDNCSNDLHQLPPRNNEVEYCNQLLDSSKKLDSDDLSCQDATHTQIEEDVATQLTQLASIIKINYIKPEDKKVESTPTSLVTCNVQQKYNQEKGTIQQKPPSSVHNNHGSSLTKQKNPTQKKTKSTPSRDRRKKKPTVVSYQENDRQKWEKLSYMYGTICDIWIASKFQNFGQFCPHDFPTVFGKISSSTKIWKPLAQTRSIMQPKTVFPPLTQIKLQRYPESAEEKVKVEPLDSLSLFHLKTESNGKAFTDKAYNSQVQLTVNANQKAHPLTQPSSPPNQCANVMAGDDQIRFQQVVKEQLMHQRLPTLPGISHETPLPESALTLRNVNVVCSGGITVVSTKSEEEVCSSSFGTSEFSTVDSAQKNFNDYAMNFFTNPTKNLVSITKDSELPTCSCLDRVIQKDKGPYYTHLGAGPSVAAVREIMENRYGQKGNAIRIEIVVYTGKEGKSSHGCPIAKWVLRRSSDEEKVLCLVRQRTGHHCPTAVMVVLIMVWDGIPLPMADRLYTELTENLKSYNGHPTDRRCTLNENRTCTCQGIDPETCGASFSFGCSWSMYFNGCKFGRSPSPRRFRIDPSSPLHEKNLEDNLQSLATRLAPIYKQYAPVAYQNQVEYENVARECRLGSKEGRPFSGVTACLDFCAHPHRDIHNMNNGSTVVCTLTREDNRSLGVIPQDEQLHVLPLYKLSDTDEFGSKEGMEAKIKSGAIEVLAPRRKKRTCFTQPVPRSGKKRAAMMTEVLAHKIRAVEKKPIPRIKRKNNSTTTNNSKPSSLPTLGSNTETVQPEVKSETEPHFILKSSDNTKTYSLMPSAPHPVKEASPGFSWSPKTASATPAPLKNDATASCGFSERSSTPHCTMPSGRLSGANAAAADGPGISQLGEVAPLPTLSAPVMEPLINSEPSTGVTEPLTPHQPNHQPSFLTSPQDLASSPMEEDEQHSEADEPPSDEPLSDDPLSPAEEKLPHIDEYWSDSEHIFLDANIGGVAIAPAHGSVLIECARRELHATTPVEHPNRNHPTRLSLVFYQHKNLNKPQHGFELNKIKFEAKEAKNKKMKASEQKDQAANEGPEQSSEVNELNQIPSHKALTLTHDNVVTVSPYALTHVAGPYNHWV
UniProt Q80TR8: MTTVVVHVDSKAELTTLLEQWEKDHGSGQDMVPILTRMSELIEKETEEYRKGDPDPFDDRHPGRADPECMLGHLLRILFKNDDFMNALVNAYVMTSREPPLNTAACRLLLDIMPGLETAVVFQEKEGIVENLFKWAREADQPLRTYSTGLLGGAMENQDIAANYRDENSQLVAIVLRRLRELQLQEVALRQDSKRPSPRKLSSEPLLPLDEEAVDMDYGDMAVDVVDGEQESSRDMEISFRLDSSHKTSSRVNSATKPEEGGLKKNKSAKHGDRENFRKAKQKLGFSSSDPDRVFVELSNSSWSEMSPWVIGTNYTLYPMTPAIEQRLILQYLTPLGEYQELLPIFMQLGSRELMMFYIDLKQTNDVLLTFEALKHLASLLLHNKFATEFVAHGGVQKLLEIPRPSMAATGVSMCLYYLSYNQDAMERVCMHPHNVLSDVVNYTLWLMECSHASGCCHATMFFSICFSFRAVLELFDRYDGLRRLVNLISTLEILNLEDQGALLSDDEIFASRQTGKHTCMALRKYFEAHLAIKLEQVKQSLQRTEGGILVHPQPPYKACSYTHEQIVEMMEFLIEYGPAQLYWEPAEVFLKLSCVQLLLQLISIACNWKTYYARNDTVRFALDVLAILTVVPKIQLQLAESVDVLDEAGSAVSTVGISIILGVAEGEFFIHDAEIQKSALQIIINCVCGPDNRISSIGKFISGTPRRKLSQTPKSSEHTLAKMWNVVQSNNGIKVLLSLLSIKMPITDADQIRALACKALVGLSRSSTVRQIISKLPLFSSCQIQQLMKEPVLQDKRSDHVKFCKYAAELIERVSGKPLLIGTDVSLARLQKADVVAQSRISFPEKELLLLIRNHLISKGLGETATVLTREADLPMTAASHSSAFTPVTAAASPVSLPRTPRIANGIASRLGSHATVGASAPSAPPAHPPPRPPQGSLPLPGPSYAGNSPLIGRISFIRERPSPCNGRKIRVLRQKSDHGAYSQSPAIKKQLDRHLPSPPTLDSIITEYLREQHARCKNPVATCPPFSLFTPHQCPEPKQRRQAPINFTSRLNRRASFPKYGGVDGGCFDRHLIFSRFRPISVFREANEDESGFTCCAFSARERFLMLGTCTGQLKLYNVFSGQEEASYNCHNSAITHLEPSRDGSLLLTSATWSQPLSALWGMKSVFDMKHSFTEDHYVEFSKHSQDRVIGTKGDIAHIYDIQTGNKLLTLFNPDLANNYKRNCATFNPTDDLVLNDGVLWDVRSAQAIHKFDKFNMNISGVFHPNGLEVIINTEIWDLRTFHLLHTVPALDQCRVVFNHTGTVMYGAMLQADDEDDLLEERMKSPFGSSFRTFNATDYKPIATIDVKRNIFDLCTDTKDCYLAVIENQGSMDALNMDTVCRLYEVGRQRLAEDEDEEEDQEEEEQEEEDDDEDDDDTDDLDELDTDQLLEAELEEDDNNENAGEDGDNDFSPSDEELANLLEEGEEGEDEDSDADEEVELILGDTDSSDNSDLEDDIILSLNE
UniProt Q13620: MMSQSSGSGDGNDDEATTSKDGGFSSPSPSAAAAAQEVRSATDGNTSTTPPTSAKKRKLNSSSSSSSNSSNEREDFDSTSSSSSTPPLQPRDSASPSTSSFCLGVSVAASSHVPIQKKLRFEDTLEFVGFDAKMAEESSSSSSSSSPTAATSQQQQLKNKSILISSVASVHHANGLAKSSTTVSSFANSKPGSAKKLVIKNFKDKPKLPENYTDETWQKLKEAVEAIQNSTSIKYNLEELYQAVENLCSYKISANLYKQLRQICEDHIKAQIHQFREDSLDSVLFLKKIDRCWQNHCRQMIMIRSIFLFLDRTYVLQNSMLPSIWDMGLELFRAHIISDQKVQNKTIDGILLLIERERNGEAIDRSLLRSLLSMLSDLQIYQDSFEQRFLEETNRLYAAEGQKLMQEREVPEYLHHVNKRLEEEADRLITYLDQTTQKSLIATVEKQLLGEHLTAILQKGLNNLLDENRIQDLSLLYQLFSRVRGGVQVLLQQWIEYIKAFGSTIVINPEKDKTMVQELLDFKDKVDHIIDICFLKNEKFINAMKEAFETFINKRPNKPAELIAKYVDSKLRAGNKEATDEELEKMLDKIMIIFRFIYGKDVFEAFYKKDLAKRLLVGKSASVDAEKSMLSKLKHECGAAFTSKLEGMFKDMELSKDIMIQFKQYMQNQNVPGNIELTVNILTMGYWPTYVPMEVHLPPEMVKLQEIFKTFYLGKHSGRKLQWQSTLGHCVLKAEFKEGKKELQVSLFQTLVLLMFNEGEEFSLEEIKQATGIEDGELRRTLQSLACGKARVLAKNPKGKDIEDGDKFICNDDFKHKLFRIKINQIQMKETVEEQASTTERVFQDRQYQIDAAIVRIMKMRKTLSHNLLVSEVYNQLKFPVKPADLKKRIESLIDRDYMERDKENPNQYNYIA

Experiment [1] has as its target endogenous Tet1 proteins (TET1/TET1s) (human (endogenous in MCF7, MCF10a)) (UniProt Q8NFU7). Briefly: co-IP; endogenous proteins, MCF7 cell extract (cells synchronised by double thymidine arrest); protein G agarose beads preincubated with antibody against Tet1/Tet1s; western blot.
Another experiment deals with GFP-tagged VprBP (mouse) (UniProt Q80TR8). Nature of the experiment: co-IP; HEK293-EBNA cells co-transfected (or prey endogenous); lysate in 20 mM Tris-HCl pH 8, 150 mM NaCl, 0.5 mM EDTA, 0.5% NP-40; GFP-tagged bait held on GFP-binding nanobody (GBP) beads, 4 °C, 90 min; western blot; untreated or DMSO control cells. (In western blotting, separated proteins are transferred to a membrane and probed.)

No constants are given. Whether binding was seen depends on the method and setting. Binding seen in cells or lysates may run through a third protein. Some results given as binding are weak or reduced against the parent protein; the word gives no strength.

Consider “endogenous Cul4B (from UniProt Q13620 1-913)”, for which the binding result (in experiment [1]; with GFP-tagged VprBP (mouse)) was “binds” throughout.
